Source: the supplement of paper PMC7580552
Where a name gives a salt, the structure may show the parent alone. This is one part of the list. Part of the spread comes from offsets between plates or batches.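 The strain is a K-12 laboratory model grown without shaking in 96-well plates, and biofilm is the crystal violet stain retained on the wells, read as absorbance. Drugs were picked as candidate specific biofilm blockers when they cut staining strongly but slowed free-floating growth by less than 70%.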

The compounds below were run on Escherichia coli W3110 (assay: biofilm formation (crystal violet staining) relative to untreated control; higher = more biofilm). Details: 10 µM; 20-24 h; 30 °C; TB.

SMILES | biofilm formation
CC(C)(C(=O)O)c1ccc(C(O)CCCN2CCC(C(O)(c3ccccc3)c3ccccc3)CC2)cc1 (configuration not stated) [Fexofenadine hydrochloride] | 79%
Cc1cc(C(C)(C)C)c(O)c(C)c1CC1=NCCN1 [Oxymetazoline hydrochloride] | 77%
CN(C)CCCN1c2ccccc2Sc2ccccc21 [Promazine hydrochloride] | 79%
NS(=O)(=O)c1cc(C(=O)O)cc(N2CCCC2)c1Oc1ccccc1 [Piretanide] | 65%
O=C(O)c1cccnc1Nc1cccc(C(F)(F)F)c1 [Niflumic acid] | 110%
COc1ccc(C(Cl)=C(c2ccc(OC)cc2)c2ccc(OC)cc2)cc1 [Chlorotrianisene] | 56%
Cc1oncc1C(=O)Nc1ccc(C(F)(F)F)cc1 [Leflunomide] | 80%
CCOC(=O)[C@H](CCc1ccccc1)N[C@@H](C)C(=O)N1Cc2ccccc2C[C@H]1C(=O)O [Quinapril hydrochloride] | 48%
CC(CCc1ccccc1)NCC(O)c1ccc(O)c(C(N)=O)c1 (configuration not stated) [Labetalol hydrochloride] | 47%
CN1C(C)(C)CCCC1(C)C [Pempidine] | 60%
Cc1onc(-c2c(Cl)cccc2Cl)c1C(=O)N[C@@H]1C(=O)N2[C@@H]1SC(C)(C)[C@@H]2C(=O)O [Dicloxacillin sodium salt hydrate] | 110%
CN(C)/N=N/c1[nH]cnc1C(N)=O [Dacarbazine] | 88%
CC[N+](C)(C)Cc1ccccc1Br [Bretylium tosylate] | 58%
C[N+](C)(C)CCCCCC[N+](C)(C)C [Hexamethonium dibromide dihydrate] | 68%
Cc1cc2c(cc1S(N)(=O)=O)S(=O)(=O)CCC2 [Meticrane] | 77%
NCCNCCNCCNCCN [Tetraethylenepentamine pentahydrochloride] | 43%
COC(=O)Nc1nc2cc(C(=O)c3ccccc3)ccc2[nH]1 [Mebendazole] | 68%
CC(C)c1ccc2oc3nc(N)c(C(=O)O)cc3c(=O)c2c1 [Amlexanox] | 70%
CC1(C)S[C@@H]2[C@H](NC(=O)[C@H](NC(=O)N3CCNC3=O)c3ccccc3)C(=O)N2[C@H]1C(=O)O [Azlocillin sodium salt] | 38%
Nc1nc(Cl)nc2c1ncn2[C@H]1C[C@H](O)[C@@H](CO)O1 [Cladribine] | 69%
CN[C@@H]1[C@H](O[C@H]2[C@H](O[C@H]3[C@H](O)[C@@H](O)[C@H](N=C(N)N)[C@@H](O)[C@@H]3N=C(N)N)O[C@@H](C)[C@]2(O)C=O)O[C@@H](CO)[C@H](O)[C@H]1O [Streptomycin sulfate] | 39%
OCCOCCN1CCN(C2=Nc3ccccc3Sc3ccccc32)CC1 [Quetiapine hemifumarate] | 84%
COc1cccc2c1C(=O)c1c(O)c3c(c(O)c1C2=O)C[C@@](O)(C(=O)CO)C[C@@H]3O[C@H]1C[C@H](N)[C@H](O)[C@H](C)O1 [Doxorubicin hydrochloride] | 69%
CCC(=O)O[C@@H](O[P@](=O)(CCCCc1ccccc1)CC(=O)N1C[C@H](C2CCCCC2)C[C@H]1C(=O)O)C(C)C [Fosinopril] | 101%

5 of the compounds above, tab-delimited:
SMILES	biofilm formation
CN(C)CCCN1c2ccccc2Sc2ccccc21 [Promazine hydrochloride]	79%
Cc1onc(-c2c(Cl)cccc2Cl)c1C(=O)N[C@@H]1C(=O)N2[C@@H]1SC(C)(C)[C@@H]2C(=O)O [Dicloxacillin sodium salt hydrate]	110%
C[N+](C)(C)CCCCCC[N+](C)(C)C [Hexamethonium dibromide dihydrate]	68%
CC1(C)S[C@@H]2[C@H](NC(=O)[C@H](NC(=O)N3CCNC3=O)c3ccccc3)C(=O)N2[C@H]1C(=O)O [Azlocillin sodium salt]	38%
OCCOCCN1CCN(C2=Nc3ccccc3Sc3ccccc32)CC1 [Quetiapine hemifumarate]	84%

(cont.)

SMILES | biofilm formation
CC1(C)S[C@@H]2[C@H](NC(=O)[C@H](N)c3ccc(O)cc3)C(=O)N2[C@H]1C(=O)O [Amoxicillin] | 49%
CCCCC(=O)O[C@H]1CC[C@H]2[C@@H]3CCc4cc(O)ccc4[C@H]3CC[C@]12C [Estradiol Valerate] | 85%
N=C(N)c1ccc(OCCCCCOc2ccc(C(=N)N)cc2)cc1 [Pentamidine isethionate] | 91%
Cn1c(NCCN(CCO)CCCc2ccc([N+](=O)[O-])cc2)cc(=O)n(C)c1=O [Nifekalant] | 73%
Fc1ccc(C(c2ccc(F)cc2)N2CCN(C/C=C/c3ccccc3)CC2)cc1 [Flunarizine dihydrochloride] | 72%
COc1ccc(CCN(C)CCCC(C#N)(c2ccc(OC)c(OC)c2)C(C)C)cc1OC (configuration not stated) [Verapamil hydrochloride] | 73%
Cc1onc(-c2ccccc2)c1-c1ccc(S(N)(=O)=O)cc1 [Valdecoxib] | 81%
CCCc1cc(=O)[nH]c(=S)[nH]1 [Propylthiouracil] | 61%
C[N+]1(CCCCC[N+]2(C)CCCC2)CCCC1 [Pentolinium bitartrate] | 61%
Oc1ncnc2[nH]ncc12 [Allopurinol] | 75%
CCCCCCC[N+](CC)(CC)CCCCc1ccc(Cl)cc1 [Clofilium tosylate] | 68%
CNCCCC1c2ccccc2C=Cc2ccccc21 [Protriptyline hydrochloride] | 62%
C[C@]12CCC(=O)C=C1CC[C@@H]1[C@@H]2[C@@H](O)C[C@@]2(C)[C@H]1CC[C@]2(O)C(=O)CO [Hydrocortisone base] | 71%
CC(=O)[C@H]1CC[C@H]2[C@@H]3CCC4=CC(=O)CC[C@]4(C)[C@H]3CC[C@]12C [Progesterone] | 90%
NC(Cc1cc(I)c(Oc2cc(I)c(O)c(I)c2)c(I)c1)C(=O)O (configuration not stated) [Thyroxine (L)] | 100%
CN(C)CC/C=C1/c2ccccc2Sc2ccc(Cl)cc21 [Chlorprothixene hydrochloride] | 69%
COc1ccc2[nH]c([S+]([O-])Cc3ncc(C)c(OC)c3C)nc2n1 (configuration not stated) [Tenatoprazole] | 74%
CN(C)CCOC(c1ccccc1)c1ccccc1 [Diphenhydramine hydrochloride] | 68%
C[C@]12CC[C@@H]3c4ccc(O)cc4CC[C@H]3[C@@H]1CC[C@@H]2O [Estradiol-17 beta] | 94%
CCCN(CCC)S(=O)(=O)c1ccc(C(=O)O)cc1 [Probenecid] | 82%
Clc1ccc(CSC(Cn2ccnc2)c2ccc(Cl)cc2Cl)cc1 (configuration not stated) [Sulconazole nitrate] | 56%
Nc1ccn([C@@H]2O[C@H](CO)[C@@H](O)C2(F)F)c(=O)n1 [Gemcitabine] | 88%
CN1C(=O)CC(c2ccccc2)C1=O (configuration not stated) [Phensuximide] | 81%
CN(C)CCN(Cc1ccccc1)c1ccccn1 [Tripelennamine hydrochloride] | 69%

SMILES | biofilm formation
CC1CNc2c(cccc2S(=O)(=O)N[C@@H](CCCNC(=N)N)C(=O)N2CC[C@@H](C)C[C@@H]2C(=O)O)C1 (some centres not stated) [Argatroban] | 76%
CC(=O)O[C@@]12CO[C@@H]1C[C@H](O)[C@@]1(C)C(=O)[C@H](O)C3=C(C)[C@@H](OC(=O)[C@H](O)[C@@H](NC(=O)OC(C)(C)C)c4ccccc4)C[C@@](O)([C@@H](OC(=O)c4ccccc4)[C@H]21)C3(C)C [Docetaxel] | 88%
N=C(N)NC(=O)Cc1c(Cl)cccc1Cl [Guanfacine hydrochloride] | 64%
Clc1ccc(Cn2c(CN3CCCC3)nc3ccccc32)cc1 [Clemizole hydrochloride] | 68%
COc1cc2nc(N(C)CCCNC(=O)C3CCCO3)nc(N)c2cc1OC (configuration not stated) [Alfuzosin hydrochloride] | 63%
O=C(O)COCCN1CCN(C(c2ccccc2)c2ccc(Cl)cc2)CC1 (configuration not stated) [Cetirizine dihydrochloride] | 68%
N[C@@H]1CONC1=O [D-cycloserine] | 69%
C#C[C@]1(OC(C)=O)CC[C@H]2[C@@H]3CCC4=CC(=NO)CC[C@@H]4[C@H]3CC[C@@]21CC (mixture of isomers) [Norgestimate] | 54%
CC(=O)O[C@]1(C(C)=O)CC[C@H]2[C@@H]3C=C(Cl)C4=CC(=O)[C@@H]5C[C@@H]5[C@]4(C)[C@H]3CC[C@@]21C [Cyproterone acetate] | 59%
Clc1ccc(CO/N=C(\Cn2ccnc2)c2ccc(Cl)cc2Cl)c(Cl)c1 [Oxiconazole Nitrate] | 60%
CC1(C)[C@H](C(=O)O)N2C(=O)C[C@H]2S1(=O)=O [Sulbactam] | 86%
Cc1ncc(CO)c(CO)c1O [Pyridoxine hydrochloride] | 80%
CCc1c(C)[nH]c2c1C(=O)C(CN1CCOCC1)CC2 (configuration not stated) [Molindone hydrochloride] | 79%
CCC1(c2ccccc2)NC(=O)N(C)C1=O (configuration not stated) [Mephenytoin] | 82%
CC1=C(/C=C/C(C)=C/C=C/C(C)=C/C(=O)O)C(C)(C)CCC1 [Retinoic acid] | 49%
NC(=O)c1cc[n+](CC2=C(C(=O)[O-])N3C(=O)[C@@H](NC(=O)[C@@H](c4ccccc4)S(=O)(=O)O)[C@H]3SC2)cc1 [Cefsulodin sodium salt] | 63%
CC(=O)Oc1ccccc1C(=O)O [Acetylsalicylic acid] | 102%
N=C(N)NS(=O)(=O)c1ccc(N)cc1 [Sulfaguanidine] | 91%
CCOC(=O)OC(C)OC(=O)[C@@H]1N2C(=O)[C@@H](NC(=O)[C@H](N)c3ccccc3)[C@H]2SC1(C)C (some centres not stated) [Bacampicillin hydrochloride] | 47%
CCOC(=O)[C@H](CCc1ccccc1)N[C@H]1CCc2ccccc2N(CC(=O)O)C1=O [Benazepril hydrochloride] | 74%
COC1=C(OC)C(=O)C(CCCCCCCCCCO)=C(C)C1=O [Idebenone] | 97%
NCCCC[C@H](N[C@@H](CCc1ccccc1)C(=O)O)C(=O)N1CCC[C@H]1C(=O)O [Lisinopril] | 82%
CC(C)(C)NC[C@H](O)COc1nsnc1N1CCOCC1 [Timolol maleate salt] | 53%
O=C(Nc1cccc2c(=O)cc(-c3nnn[nH]3)oc12)c1ccc(OCCCCc2ccccc2)cc1 [Pranlukast] | 45%
